Values of other authors, collected in article PMC11592477, “Bioengineering the Human Intestinal Mucosa and the Importance of Stromal Support for Pharmacological Evaluation In Vitro” (Cells, 2024).

Settings: hydrophilic drugs; in words; ref [14]; cited from earlier work

For CC1=C(C(=O)O)N2C(=O)[C@@H](NC(=O)[C@H](N)c3ccccc3)[C@H]2SC1 [cephalexin], the absorption in vivo is given as “high”.
